# From publication PMC8384837
# Changes are numbered by the printed parent chain. The list shows a part of the results. For some assays here: At the low end of the ranking the order means little.
# Assays:
# Conditions in all cases: yeast three-hybrid, YBZ-1, SC-Leu-His + 0.5 mM 3-AT, 4 days
# [1] = target: T1, PUM1 PUF domain R6-SRQ N1043S + Y1044R (Homo sapiens) (UniProt Q14671)
# T1 sequence: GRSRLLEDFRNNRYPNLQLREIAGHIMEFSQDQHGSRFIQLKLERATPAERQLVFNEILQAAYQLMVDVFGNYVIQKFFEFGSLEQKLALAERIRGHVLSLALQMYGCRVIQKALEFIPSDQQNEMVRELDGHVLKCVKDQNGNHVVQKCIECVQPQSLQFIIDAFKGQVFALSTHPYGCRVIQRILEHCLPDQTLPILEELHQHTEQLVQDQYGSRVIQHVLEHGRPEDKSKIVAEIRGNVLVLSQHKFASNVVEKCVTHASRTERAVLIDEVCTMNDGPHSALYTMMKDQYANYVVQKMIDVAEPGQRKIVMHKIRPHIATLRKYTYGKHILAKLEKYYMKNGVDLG
# [2] = target: T2, PUM1 PUF domain R6-RFV N1043R + Y1044F + Q1047V (Homo sapiens) (UniProt Q14671)
# T2 sequence: T1 sequence with S216R, R217F, Q220V
# [3] = target: T3, PUM1 PUF domain R6-RHR N1043R + Y1044H + Q1047R (UniProt Q14671)
# T3 sequence: T1 sequence with S216R, R217H, Q220R
# [4] = target: T4, PUM1 PUF domain R6-RRK N1043R + Y1044R + Q1047K (UniProt Q14671)
# T4 sequence: T1 sequence with S216R, Q220K
# [5] = target: T5, PUM1 PUF domain R6-RWA N1043R + Y1044W + Q1047A (Homo sapiens) (UniProt Q14671)
# T5 sequence: T1 sequence with S216R, R217W, Q220A
# [6] = target: T6, PUM1 PUF domain R6-RWC N1043R + Y1044W + Q1047C (UniProt Q14671)
# T6 sequence: T1 sequence with S216R, R217W, Q220C
# [7] = target: T7, PUM1 PUF domain R6-RWG N1043R + Y1044W + Q1047G (Homo sapiens) (UniProt Q14671)
# T7 sequence: T1 sequence with S216R, R217W, Q220G
# [8] = target: T8, PUM1 PUF domain R6-RWL N1043R + Y1044W + Q1047L (Homo sapiens) (UniProt Q14671)
# T8 sequence: T1 sequence with S216R, R217W, Q220L
# [9] = target: T9, PUM1 PUF domain R6-RWV N1043R + Y1044W + Q1047V (Homo sapiens) (UniProt Q14671)
# T9 sequence: T1 sequence with S216R, R217W, Q220V
# [10] = target: T10, PUM1 PUF domain R6-RYA N1043R + Q1047A (UniProt Q14671)
# T10 sequence: T1 sequence with S216R, R217Y, Q220A
# [11] = target: T11, PUM1 PUF domain R6-RYG N1043R + Q1047G (UniProt Q14671)
# T11 sequence: T1 sequence with S216R, R217Y, Q220G
# [12] = target: T12, PUM1 PUF domain R6-SFR N1043S + Y1044F + Q1047R (UniProt Q14671)
# T12 sequence: T1 sequence with R217F, Q220R
# [13] = target: T13, PUM1 PUF domain R6-SFS N1043S + Y1044F + Q1047S (UniProt Q14671)
# T13 sequence: T1 sequence with R217F, Q220S
# [14] = target: T14, PUM1 PUF domain R6-SHR N1043S + Y1044H + Q1047R (UniProt Q14671)
# T14 sequence: T1 sequence with R217H, Q220R
# [15] = target: T15, PUM1 PUF domain R6-SRR N1043S + Y1044R + Q1047R (UniProt Q14671)
# T15 sequence: T1 sequence with Q220R
# [16] = target: T16, PUM1 PUF domain R6-RHG N1043R + Y1044H + Q1047G (Homo sapiens) (UniProt Q14671)
# T16 sequence: T1 sequence with S216R, R217H, Q220G
# [17] = target: T17, PUM1 PUF domain R6-RHS N1043R + Y1044H + Q1047S (Homo sapiens) (UniProt Q14671)
# T17 sequence: T1 sequence with S216R, R217H, Q220S
# [18] = target: T18, PUM1 PUF domain R6-RYL N1043R + Q1047L (Homo sapiens) (UniProt Q14671)
# T18 sequence: T1 sequence with S216R, R217Y, Q220L
# [19] = target: T19, PUM1 PUF domain R6-SFK N1043S + Y1044F + Q1047K (Homo sapiens) (UniProt Q14671)
# T19 sequence: T1 sequence with R217F, Q220K
# [20] = target: T20, PUM1 PUF domain R6-SWR N1043S + Y1044W + Q1047R (Homo sapiens) (UniProt Q14671)
# T20 sequence: T1 sequence with R217W, Q220R
sequence,measurement,setting,value
GGCUAGAACUAGUGGAUCCCCCGGCGCCCGGCGGCUCGAGCCCGGGUAAGUGUAAAUAGUCUGCAUGCCGCCGGGCGCCAUGCCUGCAGGUCGACUCUAGAAAACAUG,binding signal (log2 enrichment (interaction score)),[1],-0.69
GGCUAGAACUAGUGGAUCCCCCGGCGCCCGGCGGCUCGAGCCCGGGUAAGUGGAAAUAGUCUGCAUGCCGCCGGGCGCCAUGCCUGCAGGUCGACUCUAGAAAACAUG,binding signal (log2 enrichment (interaction score)),[2],-5.36
same,binding signal (log2 enrichment (interaction score)),[3],< -7.88
same,binding signal (log2 enrichment (interaction score)),[4],< -9.78
same,binding signal (log2 enrichment (interaction score)),[5],-1.63
same,binding signal (log2 enrichment (interaction score)),[6],< -7.04
same,binding signal (log2 enrichment (interaction score)),[7],-0.05
same,binding signal (log2 enrichment (interaction score)),[8],-0.19
same,binding signal (log2 enrichment (interaction score)),[9],-5.44
same,binding signal (log2 enrichment (interaction score)),[10],< -8.18
same,binding signal (log2 enrichment (interaction score)),[11],-6.62
same,binding signal (log2 enrichment (interaction score)),[12],< -7.48
same,binding signal (log2 enrichment (interaction score)),[13],< -7.36
same,binding signal (log2 enrichment (interaction score)),[14],< -7.94
same,binding signal (log2 enrichment (interaction score)),[15],< -10.8
GGCUAGAACUAGUGGAUCCCCCGGCGCCCGGCGGCUCGAGCCCGGGUAAGUGAAAAUAGUCUGCAUGCCGCCGGGCGCCAUGCCUGCAGGUCGACUCUAGAAAACAUG,binding signal (log2 enrichment (interaction score)),[16],-3.08
same,binding signal (log2 enrichment (interaction score)),[17],-2.36
same,binding signal (log2 enrichment (interaction score)),[18],-1.04
same,binding signal (log2 enrichment (interaction score)),[19],-4.86
same,binding signal (log2 enrichment (interaction score)),[20],-0.44

# Shown as tab-separated lines: entries from further up.
sequence	measurement	setting	value
GGCUAGAACUAGUGGAUCCCCCGGCGCCCGGCGGCUCGAGCCCGGGUAAGUGGAAAUAGUCUGCAUGCCGCCGGGCGCCAUGCCUGCAGGUCGACUCUAGAAAACAUG	binding signal (log2 enrichment (interaction score))	[15]	< -10.8
GGCUAGAACUAGUGGAUCCCCCGGCGCCCGGCGGCUCGAGCCCGGGUAAGUGAAAAUAGUCUGCAUGCCGCCGGGCGCCAUGCCUGCAGGUCGACUCUAGAAAACAUG	binding signal (log2 enrichment (interaction score))	[16]	-3.08
